Results: paper PMC5996148
Some of the results follow.

Tests used:
Assay in all cases: protein microarray (ProtoArray v5.0), streptavidin-Alexa Fluor 647
Settings in all cases: 3'-biotin; 20 mM Tris (pH 7.5), 5 mM MgCl2, 100 mM KCl, 0.1% Tween-20, A/T-rich and random oligonucleotide blockers; temperature not stated; high values mean tight binding
RUFY3 (human) = test system: RUFY3 (human)
RUNDC3A (human) = test system: RUNDC3A (human)
RUNX1T1 (human) = test system: RUNX1T1 (human)
RWDD1 (human) = test system: RWDD1 (human)
[1] = test system: Rab-like protein 3 (human)
[2] = test system: Rab9 effector protein with Kelch motifs (human)
[3] = test system: Radial spoke head 10 homolog B2 (human)
[4] = test system: RanBP-type and C3HC4-type zinc finger-containing protein 1 (human)
[5] = test system: Rap1 GTPase-GDP dissociation stimulator 1 (human)
[6] = test system: Ras association domain-containing protein 3 (human)
[7] = test system: Ras-related protein Rab-33B (human)
[8] = test system: Ras-related protein Rab-39B (human)
[9] = test system: Ras-related protein Rab-3D (human)
[10] = test system: Ras-related protein Rab-5A (human)
[11] = test system: Ras-related protein Rab-9B (human)
[12] = test system: Ras-related protein Rap-1b (human)
[13] = test system: Receptor expression-enhancing protein 1 (human)
[14] = test system: Receptor expression-enhancing protein 5 (human)
[15] = test system: Regenerating islet-derived protein 3 gamma (human)
Regucalcin (human) = test system: Regucalcin (human)

## GGGAGGCTGAGGCAGG [G4-1 biotinylated (PQS2)]
RUFY3 (human)
  binding signal: -0.322 z-score
RUNDC3A (human)
  binding signal: -0.319 z-score
RUNX1T1 (human)
  binding signal: -0.337 z-score
RWDD1 (human)
  binding signal: -0.328 z-score
[1]
  binding signal: -0.299 z-score
[2]
  binding signal: -0.334 z-score
[3]
  binding signal: -0.264 z-score
[4]
  binding signal: -0.326 z-score
[5]
  binding signal: -0.343 z-score
[6]
  binding signal: -0.32 z-score
[7]
  binding signal: -0.349 z-score
[8]
  binding signal: -0.361 z-score
[9]
  binding signal: -0.347 z-score
[10]
  binding signal: -0.285 z-score
[11]
  binding signal: -0.359 z-score
[12]
  binding signal: -0.331 z-score
[13]
  binding signal: -0.336 z-score
[14]
  binding signal: -0.361 z-score
[15]
  binding signal: -0.357 z-score
Regucalcin (human)
  binding signal: -0.332 z-score
